## Percent effect of library compounds

Protein sequences, listed by entry. Tags and fused reporters are not part of them.
UniProt P9WNZ1, whole entry: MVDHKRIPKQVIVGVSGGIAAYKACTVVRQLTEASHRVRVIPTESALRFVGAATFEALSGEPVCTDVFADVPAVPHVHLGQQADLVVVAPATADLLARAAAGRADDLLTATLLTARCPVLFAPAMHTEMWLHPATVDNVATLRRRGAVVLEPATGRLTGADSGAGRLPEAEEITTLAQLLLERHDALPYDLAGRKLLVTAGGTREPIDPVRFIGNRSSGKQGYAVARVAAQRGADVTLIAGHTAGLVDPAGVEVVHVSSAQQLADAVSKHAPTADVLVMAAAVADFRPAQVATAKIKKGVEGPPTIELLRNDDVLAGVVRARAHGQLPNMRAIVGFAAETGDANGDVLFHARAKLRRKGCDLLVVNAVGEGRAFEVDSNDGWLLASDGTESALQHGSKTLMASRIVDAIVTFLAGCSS

Values are the deposited “Percent Effect”, in %. The controls that fix the scale are not given in the record; negative values are as filed. This is an unselected part of the compounds tested. Two or more numbers in one place are separate tests of the same structure; such repeats can differ widely. A dash means the value is not listed here; it may have been measured.

Leishmania in macrophages: 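Cell assay of Leishmania donovani living inside macrophages; the read-out is not stated. Concentration: 30 µM. Direction is inferred from retests: higher values go with stronger inhibition. About 69,000 compounds were tested under these conditions; 1.5% (about 1,000) showed 50% or more at least once.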
CoaBC: 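Enzyme assay of CoaBC with a phosphate dye (Biomol Green) read at 650 nm. Target: Coenzyme A biosynthesis protein CoaBC, Mycobacterium tuberculosis (UniProt P9WNZ1). Tested at 30 µM. Higher reads as stronger inhibition, judged from the few compounds that gave an IC50. Most strong results did not repeat in a second test. Of about 67,000 compounds tested this way, about 40 (0.06%) reached 50% or more in at least one test.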

For Cc1ccc(C)c(-n2cc(CN3CC[C@@H](O)C3)c(-c3ccccc3)n2)c1 the result was Leishmania in macrophages: 9.612%; CoaBC: -36.78%.
For CN(C)S(=O)(=O)N1CC[C@]2(O)CCN(Cc3cccc(F)c3)C[C@@H]2C1 the result was CoaBC: 0%.
For O=C(O)C(F)(F)F.O=C(O)C(F)(F)F.[H][C@@]12COC[C@]1([H])[C@@H](OCc1cccnc1)CN2Cc1ccco1 the result was Leishmania in macrophages: 63.54%.
For CCC1c2ccsc2CCN1C(=O)NCc1cc(C)on1 (stereo not drawn) the result was Leishmania in macrophages: 18.18%; CoaBC: -2.895%.
For Cn1cc(S(=O)(=O)NC(=O)C2(c3cccc(Cl)c3)CC2)cn1 the result was Leishmania in macrophages: 12.38%; CoaBC: 10.77%.
For Cc1noc(C)c1CNCc1nn(-c2ccccc2)c2c1CCC2 the result was Leishmania in macrophages: -2.831%.
For CC(NC(=O)Cn1ccc(=O)n(C)c1=O)c1cc(F)ccc1F (stereo not drawn) the result was Leishmania in macrophages: 7.958%; CoaBC: -6.702%.
For CC(C)CC(=O)N1CC(=O)c2sc(NC3CCCCC3)nc2C1 the result was Leishmania in macrophages: -0.112% & 3.438%; CoaBC: -1.807%.
For Cc1cc(C)n(C2CN(CC(=O)NC3CCOCC3)C2)n1 the result was Leishmania in macrophages: 19.44%; CoaBC: 0.7833%.
For Cc1noc(C)c1CN(C)C(=O)c1ccc(O)nc1 the result was Leishmania in macrophages: 24.33%; CoaBC: -6.128%.
For c1nc(N2CCCC2Cn2cncn2)c2ccsc2n1 (stereo not drawn) the result was Leishmania in macrophages: -3.989%; CoaBC: -2.871%.
For O=C(N[C@H]1CCCC[C@@H]1O)c1ccc2nc(-c3ccccc3)[nH]c2c1 the result was Leishmania in macrophages: 9.041%; CoaBC: 2.184%.
For COCCC1COC2(CCN(C(=O)c3ccsc3)CC2)C1 (stereo not drawn) the result was Leishmania in macrophages: -28.73%; CoaBC: 3.5%.
For CCOC(=O)C1CCN(C(=O)c2cc(F)ccc2-n2cnnn2)CC1 the result was Leishmania in macrophages: 16%; CoaBC: 1.453%.
For CCCc1nnc(NC2CCN(C3CCSCC3)CC2)o1 the result was Leishmania in macrophages: 12.32%.
For CCC(C)(NCC(N)=O)c1nccs1 (stereo not drawn) the result was Leishmania in macrophages: 27.93%; CoaBC: 4.989%.
For [H][C@@]12CS(=O)(=O)C[C@]1([H])N(C(=O)CN1CCCC1)CCN2Cc1[nH]cnc1C the result was Leishmania in macrophages: -5.75%.
For COc1c(C2CCCN2C(=O)c2cccnc2N(C)C)c(C)nn1C (stereo not drawn) the result was Leishmania in macrophages: 19.91%; CoaBC: -4.558%.
For CCN1CCOCC2(CCCN(C(=O)c3ccccc3F)C2)C1 (stereo not drawn) the result was CoaBC: 2.824%.
For Cc1ccc(OC2(C(=O)O)CCN(C(=O)c3ccsc3)CC2)cn1 the result was Leishmania in macrophages: 3.227%; CoaBC: 8.73%.
For COc1ncc(CN2CCOC(C)(C(=O)N3CCOCC3)C2)cn1 (stereo not drawn) the result was Leishmania in macrophages: 11.69% & 15.33%; CoaBC: 1.937%.
For COCc1nc2cc(NCc3scnc3C)ccc2o1 the result was Leishmania in macrophages: 11.49%; CoaBC: 11.9%.
For CCc1[nH]ncc1C(=O)N1CCCN(Cc2cnn(C)c2)CC1 the result was Leishmania in macrophages: -19.53%; CoaBC: 10.51%.
For O=C(CCNc1ccc(Cl)cn1)NCc1ccncc1 the result was Leishmania in macrophages: -2.435%; CoaBC: 3.512%.
For CC(C)N1CCO[C@H]2CN(Cc3cc[nH]n3)C[C@H]21 the result was CoaBC: 2.847%.
For CC(C)c1nnc(CN(C)C(c2ccc(F)cc2)c2cccnc2)o1 (stereo not drawn) the result was Leishmania in macrophages: -2.455%; CoaBC: -1.071%.
For O=C1C(NCc2ccc3c(c2)CCO3)CCN1Cc1ccccc1 (stereo not drawn) the result was CoaBC: -1.966%.
For COc1cc(N2CCC3(CC2)CC(N2CCOCC2)C3)ncn1 the result was CoaBC: 8.906%.
For Cc1cnc(N2CCC[C@@H]3CN(S(C)(=O)=O)C[C@@H]32)nc1 the result was CoaBC: 5.123%.
For CSc1nc2ccsc2c(=O)n1CC(=O)N(C)C1CCCCC1 the result was Leishmania in macrophages: 8.197%; CoaBC: 7.977%.
For Cc1cnn(C2CCCN(C(=O)c3cc(-c4ccccc4C)n[nH]3)C2)c1 (stereo not drawn) the result was Leishmania in macrophages: 34.04%; CoaBC: 1.217%.
For O=C(CN1C=Nc2ccccc2S1(=O)=O)NCc1ccccc1 the result was Leishmania in macrophages: 15.02%; CoaBC: 2.999%.
For CCN1CC2(CCN(CCOc3ccc(F)cc3)CC2)CC1=O the result was Leishmania in macrophages: 52.2%; CoaBC: -0.2237%.
For CC(=O)N1CCC(NC(=O)c2ccccc2-n2cnnn2)CC1 the result was Leishmania in macrophages: -0.3656%; CoaBC: 4.637%.
For CCc1nc2n(n1)CC(Nc1nc(C)cc(N(C)C)n1)CC2 (stereo not drawn) the result was Leishmania in macrophages: 26.38%; CoaBC: -3.586%.
For Cc1cc(=O)c2ccccc2n1CC1CCNC1 (stereo not drawn) the result was Leishmania in macrophages: 35.1%; CoaBC: 17.05%.
For COCCC(=O)N1C[C@@H](O)[C@H](N2CCN(c3ccccc3)CC2)C1 the result was Leishmania in macrophages: 28.15%; CoaBC: -0.4932%.
For Cc1ccc(C(=O)N2CCc3c(CNc4ncccn4)cncc3C2)o1 the result was CoaBC: 2.343%.
For O=C(Cn1cccn1)N1CCC(Oc2cnccn2)CC1 the result was Leishmania in macrophages: 9.244% & 9.002%; CoaBC: 15.01%.
For CCn1nc(C)cc1C(=O)N1C[C@@H](CN(C)C)[C@@H](CO)C1 the result was Leishmania in macrophages: -11.5%; CoaBC: 0%.
For COCC1CN(Cc2ccccn2)Cc2cn(C)nc21.O=C(O)C(F)(F)F.O=C(O)C(F)(F)F.O=C(O)C(F)(F)F (stereo not drawn) the result was Leishmania in macrophages: -6.01%.
For CC(C)(C)NC(=O)Cn1c(=O)n(Cc2ccco2)c2ncccc21 the result was Leishmania in macrophages: 21.31% & 19.63%; CoaBC: -3.398%.
For Cc1ncccc1O[C@H]1CCN(C(=O)c2cccs2)CC[C@@H]1O the result was Leishmania in macrophages: 22.75%; CoaBC: -1.944%.
For O=C(c1cnc(-c2ncccn2)s1)N1CCCC(n2cccn2)C1 (stereo not drawn) the result was Leishmania in macrophages: 19.86%; CoaBC: 14.29%.
For CCOC(=O)N1CCC2(CCNC2)C1.Cl (stereo not drawn) the result was Leishmania in macrophages: -4.588%.

Repeated from the top, 5 entries:

structure	Leishmania in macrophages	CoaBC
Cc1ccc(C)c(-n2cc(CN3CC[C@@H](O)C3)c(-c3ccccc3)n2)c1	9.612%	-36.78%
CN(C)S(=O)(=O)N1CC[C@]2(O)CCN(Cc3cccc(F)c3)C[C@@H]2C1	-	0%
O=C(O)C(F)(F)F.O=C(O)C(F)(F)F.[H][C@@]12COC[C@]1([H])[C@@H](OCc1cccnc1)CN2Cc1ccco1	63.54%	-
CCC1c2ccsc2CCN1C(=O)NCc1cc(C)on1 (stereo not drawn)	18.18%	-2.895%
Cn1cc(S(=O)(=O)NC(=O)C2(c3cccc(Cl)c3)CC2)cn1	12.38%	10.77%

From ChEMBL document CHEMBL3988442, “University of Dundee, Small-Polar-MMV Screening Library” (2021).